Results: PubChem BioAssay (NCATS)
Values joined by “and” are separate entries in the source; they are usually repeats but may differ in a detail not shown here. Equal entries are not always repeated. The list shows a part of the results. The main result of the screen is listed elsewhere. These columns were measured beside it and carry no call. Most of these compounds were active or inconclusive in the main read-out, so they are no random draw. For part of these data: Words in brackets tell the shape of the fitted curve; partial curves, single points and poor fits give uncertain potencies.

Experiments:
[1] = qHTS assay for small molecule antagonists of androgen receptor signaling (AID 588516); details: AR-UAS-bla HEK293, beta-lactamase ratio, antagonist mode, 16 h
How it was run: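 Antagonist-mode qHTS: inhibition of R1881 (10 nM)-driven beta-lactamase expression in GripTite HEK 293 cells is measured after 16 h; values are Hill-derived IC50s normalized between R1881 and DMSO wells.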

[2] = qHTS assay for small molecule antagonists of peroxisome proliferator-activated receptor delta signaling (AID 588535); details: HEK293T PPARd-UAS-bla, beta-lactamase FRET ratio, 18 h; 460 nm channel;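 note: cells co-treated with a PPAR-delta agonist as stimulator during compound exposure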
How it was run: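 Reporter: UAS-bla under PPAR-delta response element, HEK293T host. Medium: 2% charcoal/dextran FBS. Dosing: titration, 18 hrs, 37 C. Detection: CCF4, 2 hrs RT, 405 ex/460 and 530 em.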

[3] = qHTS assay for small molecule antagonists of retinoid X receptor alpha signaling (AID 588546); details: HEK293T RXRa-UAS-bla, beta-lactamase ratio, antagonist mode; measured here: W530 green channel, cytotoxicity proxy;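 note: cells stimulated with 9-cis-retinoic acid as agonist; % is set by controls: 0 for no effect and ±100 for the full control effect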
How it was run: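 Beta-lactamase reporter inhibition, read as CCF4 fluorescence ratio (ex 405, em 460/530 nm) after 2 h at RT. HEK293T UAS-bla cells, 2500/well, were stimulated with 9-cis-RA at 500 or 100 nM final alongside test compound for 18 h at 37 C.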

[4] = qHTS assay for small molecule antagonists of glucocorticoid receptor signaling (AID 588533); details: HeLa MMTV-bla, GRE beta-lactamase ratio, antagonist mode, 18 h; measured here: W530 channel AC50
[5] = qHTS assay for small molecule antagonists of peroxisome proliferator-activated receptor gamma signaling (AID 588537); details: HEK293 PPARg-UAS-bla, beta-lactamase ratio, antagonist mode; measured here: W460 blue channel
How it was run: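 We seeded GeneBLAzer HEK293 reporter cells at 3000 per well, allowed 6-6.5 h attachment at 37 C, then co-treated with test compound titrations and 50 nM rosiglitazone overnight (16 h). Inhibition was quantified from 460/530 nm emission ratios.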

[6] = qHTS assay for small molecule agonists of retinoid X receptor alpha signaling (AID 588544); details: HEK293T RXRa-UAS-bla, beta-lactamase reporter, 18 h; 530 nm emission
[7] = qHTS assay for small molecule antagonists of vitamin D receptor signaling (AID 588541); details: HEK293T VDR-UAS-bla, beta-lactamase ratio, antagonist mode; measured here: W460 blue channel (cell viability)
[8] = measured here: W460 blue channel fit
[9] = measured here: W530 green channel, cytotoxicity/artifact

SMILES | AC50 [1, 8] | max response [2] [%] | max response [3] [%] | AC50 [4] | AC50 [5] | max response [6] | AC50 [1, 9] | AC50 [7]
Cc1cnc(C2=NC(C)(C(C)C)C(=O)N2)c(C(=O)O)c1 (stereo not given) | 11.2 µM [rising, partial curve, poor fit] | -1.15 | -10.2 |  |  |  |  | 
COC(=O)N(C(=O)N1COC2(C(=O)OC)Cc3cc(Cl)ccc3C2=N1)c1ccc(OC(F)(F)F)cc1 (stereo not given) | 50.1 µM [falling, single point] |  | -14.6 | 63.1 µM [falling, partial curve, poor fit] | 0.00158 µM [falling, full curve, poor fit] | 7.91% |  | 
C=CC(=O)OCC(CC)(COC(=O)C=C)COC(=O)C=C | 50.1 µM [falling, single point] | -87 |  |  |  | 22.9% | 39.8 µM [rising, partial curve] | 25.1 µM [falling, full curve]
CC(COc1ccc(Oc2ccccc2)cc1)Oc1ccccn1 (stereo not given) | 63.1 µM [falling, partial curve, poor fit] |  |  |  |  | 2.78% and 11.9% |  | 
CCCCCCCCCCCCC1=C(OC(C)=O)C(=O)c2ccccc2C1=O | 25.1 µM [falling, single point] | -74 | 3.72 |  |  | -29.6% | 28.2 µM [rising, single point] | 
COP(=O)(OC)O/C(=C\Cl)c1cc(Cl)c(Cl)cc1Cl | 44.7 µM [falling, partial curve, poor fit] | -73.5 | 16.8 |  | 25.1 µM [falling, partial curve] | 30.1% |  | 
CCOP(=O)(OCC)Oc1nc(Cl)c(Cl)cc1Cl |  | 10.1 | 3.51 |  |  | 23.9% | 31.6 µM [rising, partial curve, poor fit] | 12.6 µM [falling, partial curve, poor fit]
